Article PMC7862700
The entries are a selection whose mix differs from that of the whole data set. At the low end of the ranking the order means little.

Target: T1, ERF (UniProt P50548)
T1 sequence: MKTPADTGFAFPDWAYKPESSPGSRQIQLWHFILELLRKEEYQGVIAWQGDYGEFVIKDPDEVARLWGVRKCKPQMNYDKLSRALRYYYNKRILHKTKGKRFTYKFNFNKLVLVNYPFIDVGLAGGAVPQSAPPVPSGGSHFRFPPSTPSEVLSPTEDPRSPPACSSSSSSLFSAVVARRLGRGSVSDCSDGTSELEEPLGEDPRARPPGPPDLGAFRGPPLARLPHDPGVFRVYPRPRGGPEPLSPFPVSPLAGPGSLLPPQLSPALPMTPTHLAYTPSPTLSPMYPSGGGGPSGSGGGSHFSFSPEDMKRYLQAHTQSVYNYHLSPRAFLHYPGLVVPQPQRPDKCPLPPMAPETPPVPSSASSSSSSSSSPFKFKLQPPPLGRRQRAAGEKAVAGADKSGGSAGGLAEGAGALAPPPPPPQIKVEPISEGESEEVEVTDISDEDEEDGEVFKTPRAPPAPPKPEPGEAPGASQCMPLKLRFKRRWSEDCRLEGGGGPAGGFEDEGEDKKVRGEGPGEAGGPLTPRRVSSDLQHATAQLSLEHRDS
Test: DAPPL (digital affinity profiling via proximity ligation, sequencing)
Conditions: 10 mM Tris-HCl pH 7.5, 50 mM NaCl, 1 mM DTT, 4% glycerol, room temperature, 30 min; GST-TFs on glutathione beads, 16-mer random dsDNA library, 0.1% …; high values mean tight binding; double strand, one strand shown; scale: fold enrichment (6-mer frequency, TF over GST control)

Sequence	binding signal
GTGCCC	0.868
ACGCGT	0.954
TGGAAG	0.988
ATGCCG	1.01
GTCATT	0.981
AGCTGT	0.935
AGGTCC	0.954
CACGAT	1.29
GGTAAC	1
ACGTAA	1.12
TGATGC	1.48
CAGCGC	0.971
GTGGCC	0.965
CTGATT	1.21
GCTATC	1.13
ACACGC	0.958
TAAGCA	0.954
GCTGCC	1
CCCGGT	0.942
CCCAAA	1.11

A stretch taken from the entries so far:
Sequence	binding signal
GTGCCC	0.868
ACGCGT	0.954
